Assay results published in PubChem BioAssay AID588499 (NMMLSC, 2011).
The whole screen tested about 360,000 compounds, of which about 610 (0.17%) were called active. Inconclusive means that the source gave no clear call. Such entries were picked first, then a sample of the others. Cut-off read from the data, not from the text of the source: active = inhibition above about 30%; inconclusive = no clear call, values can overlap the other calls; inactive = below that.

tested on: Botulinum neurotoxin type A light chain protease (Clostridium botulinum A str. ATCC 3502); experiment: blockers of BoNT/A LC substrate cleavage – biochemical, flow cytometry, MLPCN library, primary screen (AID 588499); details: multiplex microsphere protease substrate cleavage, at 10 µM, active compounds read high; note: plate controls were buffer without enzyme for full effect and enzyme alone for no effect

SMILES | inhibition
CCc1nc(NCCO)c(C#N)c2c1CSC(C)(C)C2 | inconclusive: 10.1%
Cc1ccc(S(=O)(=O)N2CCCC(CCC(=O)NCc3ccccc3F)C2)s1 (configuration not stated) | inactive: -1.1%
CC(C)CC(=O)N1CCC(N(CCc2ccccc2)Cc2ccccc2)CC1 | inactive: -2.8%
N#C/C(=C(/O)CCCl)c1ccccn1 | inactive: -0.1%
N/C(=N\OC(=O)c1ccco1)c1cccc(Br)c1 | inconclusive: 2.3%
O=C(CN(Cc1cccs1)C(=O)CNS(=O)(=O)c1ccc(Cl)cc1)NCc1ccco1 | inconclusive: 0.8%
O=C(c1ccc2c(c1)OCCO2)C1CCN(S(=O)(=O)c2ccccc2F)CC1 | inconclusive: -2.8%
O=[n+]1c2c(n([O-])c3ccccc31)CCCC2 | inactive: 0.3%
FC(F)(F)COc1ccc(-c2nnc(SCc3ccccc3)o2)cn1 | inconclusive: 19.9%
COc1ccc(C2=NS(=O)(=O)N(C)C(C(=O)NCc3ccccn3)=C2)cc1OC | inactive: 0.3%
CC(=O)Nc1cccc(-c2nnc3n2CC(C)S3)c1 (configuration not stated) | inconclusive: -0.2%
COc1ccc(C(=O)N2CCC(C)(C(=O)O)C2)cc1OC (configuration not stated) | inactive: 0.1%
CC(C)(C)CC(C)(C)NC(=O)CSCC(=O)Nc1ccc2ccccc2c1 | inconclusive: 0.4%
CCN(CC)CCCN=C(C)c1c(O)n(-c2ccccc2)c(=O)[nH]c1=O | inconclusive: -0.9%
O=C(NCCC1=CCCCC1)C(=O)NCc1ccccc1Cl | inconclusive: -3.4%
CCN(CC)CCCNC(=O)/C=C/C(=O)O | inconclusive: 15.3%
COc1cccc(C(=O)N(Cc2cc3cc(C)ccc3[nH]c2=O)CC2CCCO2)c1 (configuration not stated) | inconclusive: -2.1%
Oc1ccc(NC(=S)Nc2ccc(F)cc2)cc1 | inconclusive: -2.3%
CN1CCN(c2nc3ccccn3c(=O)c2C=C(C#N)C#N)CC1 | inactive: 1.4%
CCOc1ccc(NC(=O)CN(C2CCCCC2)S(C)(=O)=O)cc1 | inconclusive: -1.7%
Cc1cc2cc(CNC(=O)c3ccc(S(=O)(=O)N4CCCC4)cc3)ccc2n1C | active: 79.7%
Cc1ccc(NC(=O)C(c2ccccc2)N2CCN(CC(=O)N3CCOCC3)CC2)cc1Cl (configuration not stated) | inactive: 3.5%
Cn1c(SCC(=O)Nc2ccccc2)nnc1-c1ccc2nonc2c1 | inconclusive: -11.8%
CC(C)OP(=O)(c1ccc(N(C)C)cc1)C(Nc1ccccc1)c1ccccc1 (configuration not stated) | inconclusive: 2.2%

SMILES | inhibition
CN(C(=O)COC(=O)c1ccc2c(c1)OCCO2)C1CCCCC1 | inactive: -2.9%
CC(C)c1ccc(C2CC(=O)N3CN(Cc4ccco4)CSC3=C2C#N)cc1 (configuration not stated) | inconclusive: -1.4%
O=C(NCc1ccco1)c1cnc2n(c1=O)CCS2 | inactive: 0.5%
CN(CC(=O)Nc1cccc(F)c1)C(=O)CN1C(=O)C2CC=CCC2C1=O (configuration not stated) | inconclusive: 1.3%
CS(=O)(=O)c1ccc2nc(NC(=O)c3ccc(Cl)cc3)sc2c1 | inactive: -0.4%
COc1cc(C(=O)NCc2ccc3[nH]c(C)cc3c2)cc(OC)c1OC | active: 53%
NC1=C(Cl)C(=O)c2ccc(S(N)(=O)=O)cc2C1=O | inactive: -0.1%
COc1ccccc1CCN=C(N)NS(=O)(=O)c1ccc(F)cc1 | inactive: -3.5%
Cc1cc(C)n2nc(-c3cnn(C)c3C(F)(F)F)cc2n1 | inconclusive: 2.4%
Cc1ccc(-c2csc3nc4c5ccccc5c(NCCCN(C)C)nn4c(=O)c23)cc1 | active: 36.4%
CC(=O)c1ccc(N2CCN(C(=O)c3cc(C)on3)CC2)cc1 | inconclusive: 7.5%
CCc1c(O)nc(SCc2ccccc2)n(C(C)CC)c1=O (configuration not stated) | inactive: -1.4%
COC(=O)[C@H]1C[C@H](OC(=O)NCc2ccccc2F)[C@@]2(O)CN(S(=O)(=O)c3ccc(C)cc3)CC2[C@H]1C(=O)OC (some centres not stated) | inactive: 0%
CCOCCCNC(=O)C(NC(=O)c1ccccc1O)c1ccc(C)cc1 (configuration not stated) | inactive: 0%
O=c1c2ccccc2sn1-c1cc(S(=O)(=O)N2CCOCC2)ccc1N1CCOCC1 | active: 82.9%
CN(C)S(=O)(=O)c1ccc(NC(=O)CN2CCN(C(c3ccccc3)c3ccccc3)CC2)cc1 | inconclusive: -2.9%
O=C(Cn1nc(C(F)(F)F)c2c1CCC2)NC1CCCCC1 | inconclusive: 2.2%
CCOc1ccc(OCCC(=O)N(CC)CC(=O)Nc2ccccc2OC)cc1 | inactive: -1.6%
CCOc1ccc(C(=O)N2CCn3c2nc2ccccc23)cc1 | inactive: -0.9%
Cc1ccc(OCCC(=O)Nc2ccc3c(c2)OCO3)cc1 | inactive: -1.1%
COc1ccccc1N1CCN(c2nc3c(C)cccn3c(=O)c2C=O)CC1 | inconclusive: 3.4%
Cc1cccc2c3nc4ccccc4nc3n(C)c12 | active: 44.7%
CCOc1ccc(CC(=O)NCCS(=O)(=O)N2CCN(c3ccccc3)CC2)cc1 | inconclusive: 5.3%

3 compounds drawn at random from the list so far, as already listed:
SMILES | inhibition
Cc1ccc(OCCC(=O)Nc2ccc3c(c2)OCO3)cc1 | inactive: -1.1%
Cc1cccc2c3nc4ccccc4nc3n(C)c12 | active: 44.7%
CN(CC(=O)Nc1cccc(F)c1)C(=O)CN1C(=O)C2CC=CCC2C1=O (configuration not stated) | inconclusive: 1.3%
